Results as given in patent publication US20260209298A1.
Results are given in words; binding and its absence hold for the method and conditions named. Binding seen in cells or lysates may run through a third protein. Some binding calls cover weakened binding; strength is not graded here.

Protein sequences, listed by entry. Tags and fused reporters are not part of them. Lines headed by an entry give the natural chain unless they say otherwise; changes in a name come on top. Residues count along the entry.
UniProt P53350, residues 2-603: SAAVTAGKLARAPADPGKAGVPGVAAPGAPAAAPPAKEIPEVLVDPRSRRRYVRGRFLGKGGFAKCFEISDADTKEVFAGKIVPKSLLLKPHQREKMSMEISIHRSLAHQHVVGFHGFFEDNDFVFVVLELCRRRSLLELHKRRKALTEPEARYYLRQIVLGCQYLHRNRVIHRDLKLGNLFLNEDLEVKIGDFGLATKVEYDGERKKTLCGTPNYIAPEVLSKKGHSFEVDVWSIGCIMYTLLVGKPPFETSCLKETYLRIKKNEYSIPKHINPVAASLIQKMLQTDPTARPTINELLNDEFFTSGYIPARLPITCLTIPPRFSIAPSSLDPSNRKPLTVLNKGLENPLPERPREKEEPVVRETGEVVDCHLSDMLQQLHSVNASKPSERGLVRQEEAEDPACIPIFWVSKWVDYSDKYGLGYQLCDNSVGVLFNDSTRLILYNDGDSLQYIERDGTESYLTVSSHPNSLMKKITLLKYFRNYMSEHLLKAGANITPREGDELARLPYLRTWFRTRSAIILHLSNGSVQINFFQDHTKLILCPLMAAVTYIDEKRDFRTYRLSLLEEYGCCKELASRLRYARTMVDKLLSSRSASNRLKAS
UniProt P24593: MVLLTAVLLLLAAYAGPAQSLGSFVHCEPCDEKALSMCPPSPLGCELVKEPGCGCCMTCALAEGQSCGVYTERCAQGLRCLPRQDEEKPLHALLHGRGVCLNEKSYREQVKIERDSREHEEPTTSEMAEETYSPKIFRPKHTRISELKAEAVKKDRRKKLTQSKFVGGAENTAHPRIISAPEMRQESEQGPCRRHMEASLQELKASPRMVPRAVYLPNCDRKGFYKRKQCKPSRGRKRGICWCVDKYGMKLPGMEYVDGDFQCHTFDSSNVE

Assays:
[1] = molecular target: PLK1 (Polo-like kinase 1), endogenous protein in A549 and H460 cell lysates (UniProt P53350); test: co-immunoprecipitation with PLK1 antibody, A549 cells treated with 5 ng/ml TGF-β
[2] = molecular target: PLK1 (Polo-like kinase 1), endogenous protein in A549 and H460 cell lysates (UniProt P53350); test: co-immunoprecipitation after TGF-β treatment (summary of Example 4)
[3] = molecular target: PLK1 (Polo-like kinase 1), endogenous protein in A549 and H460 cell lysates (UniProt P53350); test: co-immunoprecipitation with PLK1 antibody, H460 cells treated with 2.5 ng/ml TGF-β
[4] = molecular target: PLK1 (Polo-like kinase 1), endogenous protein in A549 and H460 cell lysates (UniProt P53350); test: co-immunoprecipitation with PLK1 antibody and agarose beads from A549 and H460 lysates, immunoblot

binding [1]: binds
binding [2]: binds
binding [3]: binds
binding [4]: binds
Substance: IGFBP5 (insulin-like growth factor binding protein 5), wild type, endogenous protein in A549 and H460 cell lysates (from UniProt P24593 21-272)
